PubChem BioAssay AID504808 | Drosophila RNAi Screening Center – 2011

- Assay: 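Genes whose loss lifts activity of an E2F-responsive reporter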 (primary screen)
- Cell system: Drosophila S2 cells
- Reagent: long dsRNA against Drosophila genes
- Measurement: 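Firefly luciferase driven by E2F sites, normalised to Renilla luciferase on the same minimal promoter, measured by plate reader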
- Reading the numbers: E2F firefly: higher = more E2F reporter activity; Renilla normaliser: higher = more normaliser reporter signal
- Active means: 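a knock-down counted as active when the firefly/Renilla E2F signal rose above 50%, a threshold chosen arbitrarily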
The screen tested about 21,000 reagents; shown is a random part of those that have a named target and a result. In the full data, 18 (0.084%) were called active. 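Raw counts without plate normalisation, one of two replicates; the ratio scores behind the calls were not deposited.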 The record does not give: the amount of reagent, the time to read-out.

With CG8586 [DRSC07218], how do the results read?
E2F firefly, rep 1: 2826; Renilla normaliser, rep 1: 218; Outcome: inactive

With CG9691 [DRSC18441], what was measured?
E2F firefly, rep 1: 1.19e5; Renilla normaliser, rep 1: 6426; Outcome: inactive

What did the screen give for CG9593 [DRSC16508]?
E2F firefly, rep 1: 1.19e5; Renilla normaliser, rep 1: 6762; Outcome: inactive

For NPF (neuropeptide F) [DRSC17019], what was measured?
E2F firefly, rep 1: 1.16e5; Renilla normaliser, rep 1: 6141; Outcome: inactive

For CG30487 [DRSC05377], how do the results read?
E2F firefly, rep 1: 1.30e5; Renilla normaliser, rep 1: 5331; Outcome: inactive

For Act57B (Actin 57B) [DRSC04042], what does the deposit list?
E2F firefly, rep 1: 85865; Renilla normaliser, rep 1: 4241; Outcome: inactive

What did the screen give for 140up (upstream of RpII140) [DRSC12634]?
E2F firefly, rep 1: 78194; Renilla normaliser, rep 1: 3622; Outcome: inactive

With GC (gamma-glutamyl carboxylase) [DRSC08396], how do the results read?
E2F firefly, rep 1: 98189; Renilla normaliser, rep 1: 4155; Outcome: inactive

What did the screen give for Der-2 (Derlin-2) [DRSC15021]?
E2F firefly, rep 1: 91853; Renilla normaliser, rep 1: 5056; Outcome: inactive

With acj6 (abnormal chemosensory jump 6) [DRSC20304], what does the deposit list?
E2F firefly, rep 1: 8471; Renilla normaliser, rep 1: 824; Outcome: inactive

What is on record for RhoGAP18B (Rho GTPase activating protein at 18B) [DRSC19763]?
E2F firefly, rep 1: 1.19e5; Renilla normaliser, rep 1: 6498; Outcome: inactive

For RhoGAP18B (Rho GTPase activating protein at 18B) [DRSC20047], what was measured?
E2F firefly, rep 1: 1.17e5; Renilla normaliser, rep 1: 6480; Outcome: inactive

With RhoGAP18B (Rho GTPase activating protein at 18B) [DRSC20048], what was measured?
E2F firefly, rep 1: 1.38e5; Renilla normaliser, rep 1: 6126; Outcome: inactive

For RhoGAP18B (Rho GTPase activating protein at 18B) [DRSC20049], what does the deposit list?
E2F firefly, rep 1: 1.11e5; Renilla normaliser, rep 1: 6071; Outcome: inactive

Which result is listed for Aos1 (Activator of SUMO 1) [DRSC14113]?
E2F firefly, rep 1: 1.59e5; Renilla normaliser, rep 1: 6693; Outcome: inactive

Which result is listed for CG9164 [DRSC19087]?
E2F firefly, rep 1: 92710; Renilla normaliser, rep 1: 2876; Outcome: inactive

For CG9164 [DRSC20162], what was measured?
E2F firefly, rep 1: 7983; Renilla normaliser, rep 1: 712; Outcome: inactive

What did the screen give for CG10300 [DRSC14225]?
E2F firefly, rep 1: 1.22e5; Renilla normaliser, rep 1: 5908; Outcome: inactive

For CG34028 [DRSC17614], how do the results read?
E2F firefly, rep 1: 81820; Renilla normaliser, rep 1: 2635; Outcome: inactive

How did the screen score CG7551 [DRSC10876]?
E2F firefly, rep 1: 1.11e5; Renilla normaliser, rep 1: 6194; Outcome: inactive

What is on record for akirin [DRSC11000]?
E2F firefly, rep 1: 52345; Renilla normaliser, rep 1: 3834; Outcome: inactive

Which result is listed for trp (transient receptor potential) [DRSC17088]?
E2F firefly, rep 1: 1.12e5; Renilla normaliser, rep 1: 7201; Outcome: inactive

What is on record for CG13384 [DRSC02258]?
E2F firefly, rep 1: 1.01e5; Renilla normaliser, rep 1: 3723; Outcome: inactive

With CG9147 [DRSC03147], how do the results read?
E2F firefly, rep 1: 1.52e5; Renilla normaliser, rep 1: 5332; Outcome: inactive

With Galphaf (G protein alpha subunit f) [DRSC11171], how do the results read?
E2F firefly, rep 1: 1.65e5; Renilla normaliser, rep 1: 7241; Outcome: inactive

Which result is listed for bsd (back seat driver) [DRSC05953]?
E2F firefly, rep 1: 72233; Renilla normaliser, rep 1: 3896; Outcome: inactive

For CG15369 [DRSC18041], how do the results read?
E2F firefly, rep 1: 1.32e5; Renilla normaliser, rep 1: 5729; Outcome: inactive

How did the screen score alt (aluminum tubes) [DRSC15315]?
E2F firefly, rep 1: 74525; Renilla normaliser, rep 1: 3219; Outcome: inactive

Entries listed so far whose gene name begins with A or a (5):
Act57B (Actin 57B) [DRSC04042] | E2F firefly, rep 1: 85865; Renilla normaliser, rep 1: 4241; Outcome: inactive
acj6 (abnormal chemosensory jump 6) [DRSC20304] | E2F firefly, rep 1: 8471; Renilla normaliser, rep 1: 824; Outcome: inactive
Aos1 (Activator of SUMO 1) [DRSC14113] | E2F firefly, rep 1: 1.59e5; Renilla normaliser, rep 1: 6693; Outcome: inactive
akirin [DRSC11000] | E2F firefly, rep 1: 52345; Renilla normaliser, rep 1: 3834; Outcome: inactive
alt (aluminum tubes) [DRSC15315] | E2F firefly, rep 1: 74525; Renilla normaliser, rep 1: 3219; Outcome: inactive
